Record: PubChem BioAssay AID1259308 (NCATS, 2017)

Aim: 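Genes whose loss raises luciferase production in HEK293 cells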 (primary screen)
Cells: human HEK293 embryonic kidney cells stably expressing firefly luciferase (HEK-CMV-Luc2-Hygro)
Knock-down reagent: single siRNA against human genes, 0.8 pmol siRNA per well
Time to read-out: 72 h
Detection: 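Reporter luminescence and viable-cell signal on separate replicate plates, given as percent of non-targeting control and median/MAD z-scores, plus per-cell luciferase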
Reading the numbers: total luciferase, z-score and total luciferase, % of control: higher = more reporter protein produced; luciferase per cell, z-score: higher = more reporter output per viable cell; viable cells, % of control: higher = more viable cells
Call rule: 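Active when the median/MAD z-score for overall luciferase is greater than 3; a gene was taken forward for validation with new siRNAs if at least two of its three siRNAs passed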
Calls: active = raised luciferase; inactive = no rise
This is an unselected part of about 59,000 reagents. About 1,510 of them (2.6%) were called active. 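Calls use total luciferase alone and ignore viability, so some active siRNAs may act by altering cell number.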 Entries without a mark were called inactive.

target gene,PubChem SID,"total luciferase, z-score","total luciferase, % of control","luciferase per cell, z-score","viable cells, % of control"
NUP153 (GeneID 9972),SID160723584,0.571,93.3,2.4,55.3
NUP153 (GeneID 9972),SID160723585,2.95,140,2.51,81.1
NUP153 (GeneID 9972),SID160723586,2.06,123,1.97,81.7
CPSF4L (GeneID 642843),SID160768711,0.97,101,0.322,104
CPSF4L (GeneID 642843),SID160768712,1.75,117,1.88,79.4
CPSF4L (GeneID 642843),SID160768713,1.18,105,0.31,108
CLRN2 (GeneID 645104),SID160769436,0.544,92.7,0.577,89
CLRN2 (GeneID 645104),SID160769437,0.176,85.4,0.209,90.3
CLRN2 (GeneID 645104),SID160769438,1.6,114,1.38,88.4
GPALPP1 (GeneID 55425),SID160743677,2.03,122,1.05,104
GPALPP1 (GeneID 55425),SID160743678,1.38,109,1.01,93.7
GPALPP1 (GeneID 55425),SID160743679,-0.637,69.2,-0.349,84.8
SCFD2 (GeneID 152579),SID160759258,-0.412,73.7,-1.24,114
SCFD2 (GeneID 152579),SID160759259,-0.0692,80.5,-0.39,99.7
SCFD2 (GeneID 152579),SID160759260,0.789,97.6,0.957,84.8

An excerpt from above, limited to “total luciferase, z-score”:
CPSF4L (GeneID 642843) [SID160768711]: 0.97
CPSF4L (GeneID 642843) [SID160768712]: 1.75

Continued.
target gene,PubChem SID,"total luciferase, z-score","total luciferase, % of control","luciferase per cell, z-score","viable cells, % of control"
MTG2 (GeneID 26164),SID160730921,-0.917,63.7,-0.562,82.5
MTG2 (GeneID 26164),SID160737731,-0.566,70.6,1.5,53.2
MTG2 (GeneID 26164),SID160737732,-2.09,40.3,-1.61,68.9
USP15 (GeneID 9958),SID160723545,-0.645,69.1,-0.977,99.8
USP15 (GeneID 9958),SID160723546,-0.318,75.6,-0.832,105
USP15 (GeneID 9958),SID160723548,-1.2,58,-0.837,80.8
MFN2 (GeneID 9927),SID160723463,-1.26,56.9,-0.665,75.7
MFN2 (GeneID 9927),SID160723464,3.36 (active),149,1.56,110
MFN2 (GeneID 9927),SID160723465,-0.884,64.3,-1.88,118
MELTF (GeneID 4241),SID160723925,-0.213,77.6,-0.708,105
MELTF (GeneID 4241),SID160731227,-0.253,76.9,-0.758,105
MELTF (GeneID 4241),SID160777193,0.291,87.7,0.656,82.4
DOCK8-AS1 (GeneID 157983),SID160759576,0.163,85.1,1.01,73
DOCK8-AS1 (GeneID 157983),SID160759577,2.22,126,2.96,64.7
DOCK8-AS1 (GeneID 157983),SID160759578,-0.0594,80.7,-0.676,108
COX8A (GeneID 1351),SID160723712,-1.99,42.3,-3.25,111
COX8A (GeneID 1351),SID160730607,1.29,108,0.847,96.2
COX8A (GeneID 1351),SID160747069,-0.167,78.6,-0.598,103
A1CF (GeneID 29974),SID160739421,0.83,98.4,0.707,91.3
A1CF (GeneID 29974),SID160739422,0.371,89.3,-0.277,107
A1CF (GeneID 29974),SID160739423,-1.1,60,-1.83,109
GYPC (GeneID 2995),SID160774758,0.158,85,0.611,80.9
GYPC (GeneID 2995),SID160774759,-0.919,63.6,-0.712,85.7
GYPC (GeneID 2995),SID160774760,-0.00582,81.8,-0.512,105
